Here are results for 2 molecules from patent EP4644412A1.

Chains of the proteins cited; added tags and fusions are not shown. Residues count along the entry.
UniProt P06494, residues 23-1257: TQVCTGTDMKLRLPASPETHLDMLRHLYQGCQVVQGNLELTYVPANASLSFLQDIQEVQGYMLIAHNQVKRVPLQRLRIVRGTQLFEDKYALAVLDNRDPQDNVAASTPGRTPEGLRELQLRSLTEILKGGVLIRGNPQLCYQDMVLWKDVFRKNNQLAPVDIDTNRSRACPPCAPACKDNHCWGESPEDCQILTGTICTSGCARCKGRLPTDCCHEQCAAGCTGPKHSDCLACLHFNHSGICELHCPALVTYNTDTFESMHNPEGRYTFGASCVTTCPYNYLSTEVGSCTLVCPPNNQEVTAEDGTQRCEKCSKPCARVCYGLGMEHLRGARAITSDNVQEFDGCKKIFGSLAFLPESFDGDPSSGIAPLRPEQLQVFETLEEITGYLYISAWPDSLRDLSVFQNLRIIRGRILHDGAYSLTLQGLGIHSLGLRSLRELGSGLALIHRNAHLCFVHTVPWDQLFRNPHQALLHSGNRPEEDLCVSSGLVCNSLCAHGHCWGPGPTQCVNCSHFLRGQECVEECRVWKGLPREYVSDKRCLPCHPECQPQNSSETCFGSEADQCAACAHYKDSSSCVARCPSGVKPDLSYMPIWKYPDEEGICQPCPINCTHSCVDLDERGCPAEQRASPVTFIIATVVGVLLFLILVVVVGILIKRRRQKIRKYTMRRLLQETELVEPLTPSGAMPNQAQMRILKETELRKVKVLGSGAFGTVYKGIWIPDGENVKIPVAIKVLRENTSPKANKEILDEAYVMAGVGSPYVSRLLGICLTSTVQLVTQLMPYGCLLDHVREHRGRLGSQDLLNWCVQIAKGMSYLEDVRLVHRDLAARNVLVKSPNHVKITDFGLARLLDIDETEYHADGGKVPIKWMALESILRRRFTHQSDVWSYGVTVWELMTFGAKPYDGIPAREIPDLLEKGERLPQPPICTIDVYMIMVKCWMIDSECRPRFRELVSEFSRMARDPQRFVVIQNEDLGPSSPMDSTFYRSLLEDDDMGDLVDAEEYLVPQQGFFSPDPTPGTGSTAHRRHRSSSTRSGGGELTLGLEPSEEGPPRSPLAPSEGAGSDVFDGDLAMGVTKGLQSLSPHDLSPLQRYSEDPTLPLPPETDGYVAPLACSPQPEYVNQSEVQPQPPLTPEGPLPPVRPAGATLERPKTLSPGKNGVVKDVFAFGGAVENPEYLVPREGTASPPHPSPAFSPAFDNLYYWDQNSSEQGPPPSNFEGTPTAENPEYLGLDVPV

No constants are given. Whether binding was seen depends on the method and setting. Some entries that bind do so weakly or less than the wild type. Where a sequence is shown, tags or fusion partners need not be part of it.

This assay has as its target neu antigen (UniProt P06494). The assay is described as follows: flow cytometry on 4T1-neu cells, 1 to 500 ng, anti-human IgG detection.

B1: 7.16.4 antibody fragment fusion protein (CoreX) (Fc fusion, not shown: small tags and cut ends; a dimerising Fc or GST)
chain: DIQMTQSPATLSVTPGDSVSLSCRASQSISKNLHWYQQKSHESPRLLIKFASQSISGIPSRFSGSGSGTDFTLSINSVETEDFGMYFCQQSNNWPLTFGAGTKLELKSSGGGGSGGGGGGSSRSSLEVQLKQSGPGLVKPSQSLSLTCSVTGYSFTSYYYWNWIRQFPGNRLEWMGYISYDGTNYYNPSLKNRISITRDTSKNQFFLNLNSMTTEDTATYYCAREENWDWYFDVWGAGTTVTVSS
As to B1, the binding entry is listed as “binds”.

B2: 7.16.4 antibody fragment fusion protein (CoreXC) (Fc fusion, not shown: small tags and cut ends; a dimerising Fc or GST)
chain: DIQMTQSPATLSVTPGDSVSLSCRASQSISKNLHWYQQKSHESPRLLIKFASQSISGIPSRFSGSGSGTDFTLSINSVETEDFGMYFCQQSNNWPLTFGAGTKLELKSSGGGGSGGGGGGSSRSSLEVQLKQSGPGLVKPSQSLSLTCSVTGYSFTSYYYWNWIRQFPGNRLEWMGYISYDGTNYYNPSLKNRISITRDTSKNQFFLNLNSMTTEDTATYYCAREENWDWYFDVWGAGTTVTVSS
Take B2: the binding result is “binds”.
